In patent US10940188B2, “Compounds and methods for treatment and prevention of Flavivirus infection” (priority 2016, dated 2021):

Tested on: HEK293 cells
Assay: Toxicity IC50 (cell-killing activity) of the NS1 TR-FRET screen
Type: cell-based, human

Q: Which “Tox IC50” value does the source give for `CN[C@H]1CCc2cc(OC)c(OC)c(OC)c2-c2ccc(OC)c(=O)cc21` [Demecolcine] here?
A: The value was “No”.
